Assay results reported in paper PMC12040169 (PLOS Biology, 2025).
The list shows a part of the results.

These compounds were tested on T1, CTL2-GFP (C. trachomatis L2/434/Bu, GFP-expressing). Conditions: bulk GFP, single well; 28.5 h, 10 µM; inhibitor.
T1 construct: L2/434/Bu, GFP-expressing
Design: species or system HeLa; Intracellular C. trachomatis growth in HeLa cells, bulk GFP fluorescence relative to DMSO

Structure (SMILES) | % of control remaining [%]
O=c1[nH]cc([C@H]2C[C@@H](O)[C@@H](CO)O2)c(=O)[nH]1 [CBK201158] | 139.685
O=C1NN(c2ccc(Br)cc2)C(=O)/C1=C\c1ccc(-c2ccc3c(c2)C(=O)NC3=O)o1 [CBK262968] | 111.556
OC(CN1CCC(O)(c2ccc(C(F)(F)F)cc2)CC1)c1ccccc1 (stereo not shown) [CBK286323] | 128.643
Cc1cc(NC(=O)CN2CCC(CNc3ccccn3)C2)on1 (stereo not shown) [CBK305760] | 130.871
CN1CCN(C(=O)c2cc(C(C)(C)C)nn2Cc2ccc(Cl)cc2Cl)CC1 [CBK107285] | 121.255
CC1(C)CN=C(N2CCN(c3c4c(c(C#N)c5nc6ccccc6n35)CCC4)CC2)S1 [CBK263113] | 100
CN1CCN(NC(=O)C2C3C=CC(C3)C2C(=O)O)CC1 (stereo not shown) [CBK286915] | 120.467
Cc1cc(NS(=O)(=O)c2ccc(N3CCOCC3)nc2)n(C)n1 [CBK067253] | 105.147
O=C(O)c1cc(S(=O)(=O)NCc2ccc(Cl)cc2Cl)ccc1O [CBK296924] | 142.244
CCC(NC(=O)C(C)Cn1cccn1)c1ccc(F)cc1 (stereo not shown) [CBK283210] | 136.081
c1ncc(N2CCCC2)nc1OC1CCOC1 (stereo not shown) [CBK115893] | 106.681
O=C(c1ccc(-c2nccnc2NCc2ccc(C(F)(F)F)cc2)cc1)N1CCOCC1 [CBK036931] | 173.191
Oc1nc(CSc2nnc(-c3ccncc3)n2-c2ccccc2)nc2ccccc12 [CBK264851] | 126.671
OCCOc1cccnc1OCCN1CCCC1 [CBK039174] | 114.375
Cc1cc2ccccc2n1CCCNC(=O)c1ccc(=O)n(C)c1 [CBK282982] | 103.678
O=S1(=O)N=c2cc3c(c4cccc1c24)=Nc1ccccc1N3 [CBK020253] | 132.713
O=C(NC1CCCCC1)NS(=O)(=O)c1ccc(CCNC(=O)c2cnc3ccccc3n2)cc1 [CBK013051] | 135.738
Cc1ccc(NC(=O)C2CN(S(=O)(=O)c3ccccc3)CCN2S(=O)(=O)c2ccccc2)c(C)c1 (stereo not shown) [CBK262693] | 130.333
CN1CCN(C(=O)c2cc(Br)cnc2NCc2cccnc2)CC1 [CBK076347] | 112.033
COC(=O)C1=C(C)N(CCc2ccccc2)C(=O)C1(NC(=O)c1ccccc1)C(F)(F)F (stereo not shown) [CBK267477] | 153.951
OCCNc1nc2cc(Cl)ccc2[nH]1 [CBK262295] | 114.429
Cc1cc(C)n(CC(C)NC(=O)C(c2ccccc2)N2CCCC2)n1 (stereo not shown) [CBK281645] | 145.875
c1cncc(-c2csc(Nc3nc4cc5c(cc4s3)OCO5)n2)c1 [CBK287490] | 144.461
COc1ccc(C(C)C)cc1-c1cnc2[nH]c(=O)n([C@H](C)c3ccccc3)c2n1 [CBK064181] | 78.2345
COc1cccc(CN2CCCC(NC(=O)c3csc(C(C)=O)c3)C2)c1 (stereo not shown) [CBK307297] | 103.673

Structure (SMILES) | % of control remaining [%]
COc1ccc2c(c1)c(C)c(C(=O)N1CCCCC1CN(C)C)n2C (stereo not shown) [CBK282190] | 142.896
Cn1cncc1C(=O)N1Cc2ccccc2C1 [CBK200329] | 108.33
CC(C)NC(=O)N1Cc2nc[nH]c2C[C@H]1c1nc(-c2ccccc2)no1 [CBK288996] | 145.167
c1ccc(-c2nnc(COc3ccc(-c4cnc5ccccc5n4)cc3)o2)cc1 [CBK269707] | 119.94
NC(=O)C1CCN(C2=NC(=O)/C(=C/c3cn(-c4ccccc4)nc3-c3ccc(F)cc3)S2)CC1 [CBK265175] | 130.868
CC1(C)Cc2c(ccc3ccccc23)C(NCC(=O)O)=N1 [CBK262559] | 111.918
Cc1cccc2c3c([nH]c12)CCN(C(=O)C(C)N1CCOCC1)C3 (stereo not shown) [CBK281600] | 141.75
Cc1ccc(C(=O)Cn2c3ccccc3n3ncnc23)cc1 [CBK263081] | 106.886
CCC(C)C(NC(=O)C1CCN(S(=O)(=O)c2ccc(OC)c(OC)c2)CC1)C(=O)O (stereo not shown) [CBK297140] | 102.419
O=C(NC(N1CCOCC1)C(Cl)(Cl)Cl)c1ccc(Cl)cc1 (stereo not shown) [CBK261084] | 107.474
O=C(O)CC1OC(=O)c2cc3c(cc21)C(=O)OC3CC(=O)O (stereo not shown) [CBK262928] | 100
O=S(=O)(Nc1ccc(-c2csnn2)cc1)c1ccc(F)cc1 [CBK050482] | 103.368
Cn1nccc1C(=O)N1CCCC(c2cc3cccnc3[nH]2)C1 (stereo not shown) [CBK284929] | 125.684
Cc1ccc(S(=O)(=O)Nc2ccc(Nc3cc(-c4cccc5oc6ccccc6c45)ncn3)cc2)cc1 [CBK090977] | 187.351
CC(C)Nc1nc2cc(Cl)c(Cl)cc2nc1Sc1cccc(O)c1 [CBK093732] | 37.6945
FC(F)(F)c1ccc(CNc2nccnc2-c2cccs2)cc1 [CBK036834] | 148.281
CCN1CC2(CCN(CCCN(C)C)CC2)c2ccccc21 [CBK136988] | 105.609
COc1ccccc1CCCNC(=O)c1ccc2nc(C)[nH]c2c1 [CBK283258] | 114.162
COc1ccc(C(=O)OC(C)(C)C)c(-c2cncc(NC3CCC(N)CC3)n2)c1 (stereo not shown) [CBK037922] | 106.892
CS(=O)(=O)c1ccc(-c2nccnc2N[C@@H]2CCN(Cc3ccccc3)C2)cc1 [CBK037667] | 96.1438
CN(CC(=O)N1CCC[C@@H]2[C@H]1C/C=C/Cc1ccccc1OCC(=O)N2C)Cc1ccccn1 [CBK292078] | 143.906
O=C(NC1CCCCC1)N1C[C@@H]2C[C@H](C1)c1ccc(-c3cccnc3)c(=O)n1C2 [CBK289183] | 141.137
Cc1ccc(NS(=O)(=O)c2cc(C(=O)Nc3cccc(N(C)S(C)(=O)=O)c3)ccc2C)c(C)c1 [CBK268220] | 116.324
Cc1cn(CC(=O)N2CCC3(CCN(Cc4ccccc4)C3)C2)c(=O)[nH]c1=O (stereo not shown) [CBK136840] | 104.015

In the list so far, these have an aryl thioether with sulfur outside any ring.
Structure (SMILES) | % of control remaining [%]
Oc1nc(CSc2nnc(-c3ccncc3)n2-c2ccccc2)nc2ccccc12 [CBK264851] | 126.671
CC(C)Nc1nc2cc(Cl)c(Cl)cc2nc1Sc1cccc(O)c1 [CBK093732] | 37.6945

3 compounds from above, sorted by SMILES length, ascending:
Structure (SMILES) | % of control remaining [%]
O=C(NC(N1CCOCC1)C(Cl)(Cl)Cl)c1ccc(Cl)cc1 (stereo not shown) [CBK261084] | 107.474
O=C(O)CC1OC(=O)c2cc3c(cc21)C(=O)OC3CC(=O)O (stereo not shown) [CBK262928] | 100
COc1ccc(C(C)C)cc1-c1cnc2[nH]c(=O)n([C@H](C)c3ccccc3)c2n1 [CBK064181] | 78.2345
